# This is one part of the list. Most entries show no effect beyond the scatter of the controls.
# Chains of the proteins cited; added tags and fusions are not shown. Lines headed by an entry give the natural chain unless they say otherwise; changes in a name come on top.
# UniProt O14717: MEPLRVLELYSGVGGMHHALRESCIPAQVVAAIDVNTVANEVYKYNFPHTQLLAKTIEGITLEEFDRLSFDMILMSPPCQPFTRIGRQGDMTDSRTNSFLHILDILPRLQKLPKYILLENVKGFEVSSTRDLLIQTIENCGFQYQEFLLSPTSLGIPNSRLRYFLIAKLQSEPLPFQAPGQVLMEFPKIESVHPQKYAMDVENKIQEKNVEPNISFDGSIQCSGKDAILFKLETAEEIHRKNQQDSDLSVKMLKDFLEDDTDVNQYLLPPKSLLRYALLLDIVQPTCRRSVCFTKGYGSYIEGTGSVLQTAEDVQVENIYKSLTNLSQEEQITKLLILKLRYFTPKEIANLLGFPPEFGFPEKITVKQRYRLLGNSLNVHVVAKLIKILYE
# UniProt C9JLW8: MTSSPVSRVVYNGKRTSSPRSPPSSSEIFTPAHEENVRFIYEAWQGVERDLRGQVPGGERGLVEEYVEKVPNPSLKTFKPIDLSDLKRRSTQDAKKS
# UniProt O00635: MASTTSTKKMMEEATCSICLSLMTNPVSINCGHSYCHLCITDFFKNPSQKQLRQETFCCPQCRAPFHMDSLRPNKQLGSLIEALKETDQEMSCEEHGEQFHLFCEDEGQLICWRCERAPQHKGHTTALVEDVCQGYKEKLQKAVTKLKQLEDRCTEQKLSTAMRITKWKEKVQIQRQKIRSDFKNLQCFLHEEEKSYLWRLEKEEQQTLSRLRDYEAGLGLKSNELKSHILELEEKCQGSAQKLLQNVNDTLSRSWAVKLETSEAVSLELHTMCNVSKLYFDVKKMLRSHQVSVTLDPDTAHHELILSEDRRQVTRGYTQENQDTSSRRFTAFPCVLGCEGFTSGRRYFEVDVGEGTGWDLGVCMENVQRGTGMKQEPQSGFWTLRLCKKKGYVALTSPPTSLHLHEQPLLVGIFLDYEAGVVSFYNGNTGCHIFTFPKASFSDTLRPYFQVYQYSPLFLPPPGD
# UniProt O14734: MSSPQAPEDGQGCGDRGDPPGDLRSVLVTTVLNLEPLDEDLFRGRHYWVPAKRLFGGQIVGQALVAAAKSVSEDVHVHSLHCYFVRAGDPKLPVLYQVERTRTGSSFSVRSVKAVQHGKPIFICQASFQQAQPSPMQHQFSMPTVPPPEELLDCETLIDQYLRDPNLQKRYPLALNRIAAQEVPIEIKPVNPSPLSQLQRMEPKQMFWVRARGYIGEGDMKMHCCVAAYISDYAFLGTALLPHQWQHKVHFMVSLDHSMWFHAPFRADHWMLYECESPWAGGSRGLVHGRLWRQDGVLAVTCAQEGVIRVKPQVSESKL
# UniProt O00442: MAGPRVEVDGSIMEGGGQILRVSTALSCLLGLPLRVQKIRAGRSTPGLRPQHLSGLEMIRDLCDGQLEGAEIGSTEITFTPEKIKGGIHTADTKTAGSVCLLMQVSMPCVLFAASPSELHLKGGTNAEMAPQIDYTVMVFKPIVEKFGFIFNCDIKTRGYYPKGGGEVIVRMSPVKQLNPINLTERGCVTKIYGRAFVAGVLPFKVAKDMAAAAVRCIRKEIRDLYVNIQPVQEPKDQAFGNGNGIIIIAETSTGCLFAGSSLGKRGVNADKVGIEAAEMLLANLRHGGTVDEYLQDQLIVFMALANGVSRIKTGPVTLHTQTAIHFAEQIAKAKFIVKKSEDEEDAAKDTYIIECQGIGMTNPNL
# UniProt O15047, whole entry: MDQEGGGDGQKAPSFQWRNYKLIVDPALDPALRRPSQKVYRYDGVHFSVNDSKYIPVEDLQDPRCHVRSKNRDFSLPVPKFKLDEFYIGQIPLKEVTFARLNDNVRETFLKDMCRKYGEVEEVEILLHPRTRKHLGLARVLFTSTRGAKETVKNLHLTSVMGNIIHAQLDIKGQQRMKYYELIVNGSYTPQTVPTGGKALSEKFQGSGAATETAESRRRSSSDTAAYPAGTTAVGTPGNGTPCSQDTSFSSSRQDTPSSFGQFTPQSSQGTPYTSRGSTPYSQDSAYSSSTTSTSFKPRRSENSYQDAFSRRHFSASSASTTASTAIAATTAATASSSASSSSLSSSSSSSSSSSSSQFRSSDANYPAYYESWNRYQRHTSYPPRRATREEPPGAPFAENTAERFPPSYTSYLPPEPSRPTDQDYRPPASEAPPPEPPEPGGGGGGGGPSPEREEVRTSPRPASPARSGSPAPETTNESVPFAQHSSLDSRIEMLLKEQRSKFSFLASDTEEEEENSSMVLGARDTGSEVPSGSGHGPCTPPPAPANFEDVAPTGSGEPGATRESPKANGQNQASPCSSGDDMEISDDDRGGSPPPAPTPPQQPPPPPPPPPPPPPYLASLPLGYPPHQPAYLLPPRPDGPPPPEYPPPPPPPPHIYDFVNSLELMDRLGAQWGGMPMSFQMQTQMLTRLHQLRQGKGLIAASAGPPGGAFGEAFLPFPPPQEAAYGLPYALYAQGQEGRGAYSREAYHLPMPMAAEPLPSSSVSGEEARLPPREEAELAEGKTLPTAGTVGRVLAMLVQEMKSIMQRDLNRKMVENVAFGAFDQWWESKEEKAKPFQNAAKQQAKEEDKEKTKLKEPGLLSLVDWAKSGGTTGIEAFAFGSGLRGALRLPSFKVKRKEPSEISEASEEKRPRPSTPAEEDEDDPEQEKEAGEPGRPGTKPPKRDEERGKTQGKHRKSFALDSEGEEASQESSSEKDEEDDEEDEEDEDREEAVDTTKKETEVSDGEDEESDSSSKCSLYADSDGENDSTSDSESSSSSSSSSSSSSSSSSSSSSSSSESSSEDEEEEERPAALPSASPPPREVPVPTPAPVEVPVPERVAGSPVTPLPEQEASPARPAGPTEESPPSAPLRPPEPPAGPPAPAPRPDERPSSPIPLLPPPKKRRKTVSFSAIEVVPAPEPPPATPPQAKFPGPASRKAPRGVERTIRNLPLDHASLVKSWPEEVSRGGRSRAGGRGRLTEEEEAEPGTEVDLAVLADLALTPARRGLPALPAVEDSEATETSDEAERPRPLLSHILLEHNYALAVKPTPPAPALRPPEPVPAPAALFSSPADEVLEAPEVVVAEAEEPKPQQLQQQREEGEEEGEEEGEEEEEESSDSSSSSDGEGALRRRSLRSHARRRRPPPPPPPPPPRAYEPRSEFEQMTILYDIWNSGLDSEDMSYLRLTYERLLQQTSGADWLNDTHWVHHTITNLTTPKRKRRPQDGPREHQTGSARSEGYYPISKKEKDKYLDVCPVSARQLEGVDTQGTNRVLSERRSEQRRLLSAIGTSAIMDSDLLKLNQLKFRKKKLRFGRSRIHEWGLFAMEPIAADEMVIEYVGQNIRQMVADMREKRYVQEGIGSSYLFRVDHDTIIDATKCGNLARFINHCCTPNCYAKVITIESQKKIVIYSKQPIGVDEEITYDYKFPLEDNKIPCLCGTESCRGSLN
# UniProt O15155: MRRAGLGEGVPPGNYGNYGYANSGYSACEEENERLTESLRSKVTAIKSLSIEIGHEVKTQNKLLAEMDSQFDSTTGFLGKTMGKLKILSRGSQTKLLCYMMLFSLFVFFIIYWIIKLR
# UniProt A8MW92: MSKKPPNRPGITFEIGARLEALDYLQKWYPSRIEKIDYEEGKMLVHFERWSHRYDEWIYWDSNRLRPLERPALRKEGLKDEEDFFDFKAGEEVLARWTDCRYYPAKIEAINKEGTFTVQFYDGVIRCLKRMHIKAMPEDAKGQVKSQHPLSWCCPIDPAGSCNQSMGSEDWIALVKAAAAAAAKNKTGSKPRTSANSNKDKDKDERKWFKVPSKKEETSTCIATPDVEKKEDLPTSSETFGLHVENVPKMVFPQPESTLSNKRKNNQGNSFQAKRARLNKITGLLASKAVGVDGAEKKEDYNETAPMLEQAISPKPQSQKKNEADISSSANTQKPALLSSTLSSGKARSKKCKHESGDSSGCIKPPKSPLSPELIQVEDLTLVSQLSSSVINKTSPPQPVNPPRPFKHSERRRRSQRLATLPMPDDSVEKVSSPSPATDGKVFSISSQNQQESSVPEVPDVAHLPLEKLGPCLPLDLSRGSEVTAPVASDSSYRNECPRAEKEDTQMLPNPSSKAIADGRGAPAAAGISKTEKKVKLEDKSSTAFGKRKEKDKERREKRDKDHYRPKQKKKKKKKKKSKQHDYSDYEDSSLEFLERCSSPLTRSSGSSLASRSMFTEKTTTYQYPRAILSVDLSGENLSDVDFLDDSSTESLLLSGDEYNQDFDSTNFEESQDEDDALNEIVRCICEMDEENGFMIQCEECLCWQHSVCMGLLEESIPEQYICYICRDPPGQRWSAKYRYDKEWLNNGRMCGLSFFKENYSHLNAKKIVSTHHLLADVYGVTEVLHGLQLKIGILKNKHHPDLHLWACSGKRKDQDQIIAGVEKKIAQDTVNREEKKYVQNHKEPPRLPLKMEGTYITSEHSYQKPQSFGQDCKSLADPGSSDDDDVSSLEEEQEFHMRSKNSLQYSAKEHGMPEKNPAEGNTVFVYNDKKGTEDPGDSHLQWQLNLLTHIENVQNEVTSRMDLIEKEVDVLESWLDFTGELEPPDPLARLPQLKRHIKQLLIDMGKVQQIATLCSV
# UniProt O15304: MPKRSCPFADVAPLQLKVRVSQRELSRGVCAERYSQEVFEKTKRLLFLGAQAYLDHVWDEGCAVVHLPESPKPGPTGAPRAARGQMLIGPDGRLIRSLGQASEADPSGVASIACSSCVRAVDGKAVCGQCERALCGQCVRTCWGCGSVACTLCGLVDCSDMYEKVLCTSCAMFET
# Compound: Cc1nc(Nc2ncc(C(=O)Nc3c(C)cccc3Cl)s2)cc(N2CCN(CCO)CC2)n1 [dasatinib]
# Assay: log2 fold change of tryptic peptide abundance, ligand vs vehicle (limited proteolysis) (log2 ratio); higher = more trypsin-susceptible (destabilized)
# Conditions: ligand concentration: 5 uM; sample: K562 cleared lysate
row,Target,log2 fold change
1,"TRDMT1 (peptide sequence: LETAEEIHRK, peptide start residue: 232) (UniProt O14717)",0.41
2,"MCRIP1 (peptide sequence: TFKPIDLSDLKR, peptide start residue: 77) (UniProt C9JLW8)",-0.151
3,"TRIM38 (peptide sequence: APFHMDSLRPNK, peptide start residue: 64) (UniProt O00635)",0.17
4,"UniProt O15063 (peptide sequence: NIFIAGCSEEK, peptide start residue: 567)",-0.213
5,"ACOT8 (peptide sequence: GYIGEGDMK, peptide start residue: 213) (UniProt O14734)",0.528
6,"UniProt O00442 (peptide sequence: QLNPINLTER, peptide start residue: 177)",-0.296
7,"SETD1A (peptide sequence: RSENSYQDAFSR, peptide start residue: 300) (UniProt O15047)",-0.206
8,"BET1 (peptide sequence: SLSIEIGHEVK, peptide start residue: 48) (UniProt O15155)",0.0884
9,"UniProt A8MW92 (peptide sequence: DQDQIIAGVEKK, peptide start residue: 814)",0.705
10,"SIVA1 (peptide sequence: AVCGQCER, peptide start residue: 125) (UniProt O15304)",0.366
11,"TNRC18 (peptide sequence: GPAGPAAQQAAK, peptide start residue: 481) (UniProt O15417)",-0.758

# From no. 6 as far as 7, copied from above:
row,Target,log2 fold change
6,"UniProt O00442 (peptide sequence: QLNPINLTER, peptide start residue: 177)",-0.296
7,"SETD1A (peptide sequence: RSENSYQDAFSR, peptide start residue: 300) (UniProt O15047)",-0.206

# — the supplement of paper PMC12819154, “High-throughput peptide-centric local stability assay extends protein–ligand identification to membrane proteins, tissues and bacteria” (Nature Structural & Molecular Biology, 2025)
